Measured data: PubChem BioAssay AID1259308 (NCATS, 2017)
Test: 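Candidate targets for better recombinant protein yield in mammalian cells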 (primary screen). Cells: human HEK293 embryonic kidney cells stably expressing firefly luciferase (HEK-CMV-Luc2-Hygro). Knock-down reagent: single siRNA against human genes, 0.8 pmol siRNA per well. Duration: 72 h. Measurement: 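Luciferase light (ONE-Glo) measured on one replicate plate set and viability (CellTiter-Glo) on the other, scaled to a negative control siRNA, with robust z-scores and luciferase per cell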. Direction: total luciferase, z-score and total luciferase, % of control: higher = more reporter protein produced. Call rule: 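Active when the median/MAD z-score for overall luciferase is greater than 3; a gene was taken forward for validation with new siRNAs if at least two of its three siRNAs passed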. Meaning of the calls: active = raised luciferase; inactive = no rise.
This is one part, drawn at random, of about 59,000 reagents. About 1,510 of them (2.6%) count as active. 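Calls use total luciferase alone and ignore viability, so some active siRNAs may act by altering cell number.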 The numbers tell different reagents against one gene apart. Not all columns of the deposit are shown.

| target | reagent no. | total luciferase, z-score | total luciferase, % of control | call |
| --- | --- | --- | --- | --- |
| SDR39U1 | 1 | 5.89 | 199 | active |
| SDR39U1 | 2 | 0.332 | 88.5 | inactive |
| SDR39U1 | 3 | -0.842 | 65.1 | inactive |
| PITX2 | 1 | -1.16 | 58.8 | inactive |
| PITX2 | 2 | 4.59 | 173 | active |
| PITX2 | 3 | -0.818 | 65.6 | inactive |
| PLP1 | 1 | -0.968 | 62.6 | inactive |
| PLP1 | 2 | -0.264 | 76.6 | inactive |
| PLP1 | 3 | 2.26 | 127 | inactive |
| CLMP | 1 | -0.165 | 78.6 | inactive |
| CLMP | 2 | -0.315 | 75.6 | inactive |
| CLMP | 3 | 0.982 | 101 | inactive |
| SLC25A25 | 1 | 0.509 | 92 | inactive |
| SLC25A25 | 2 | 0.234 | 86.5 | inactive |
| SLC25A25 | 3 | -0.566 | 70.6 | inactive |
| DMC1 | 1 | 0.755 | 96.9 | inactive |
| DMC1 | 2 | 0.14 | 84.7 | inactive |
| DMC1 | 3 | -0.105 | 79.8 | inactive |
| ABCB6 | 1 | -0.0603 | 80.7 | inactive |
| ABCB6 | 2 | 0.412 | 90.1 | inactive |
| ABCB6 | 3 | -0.429 | 73.3 | inactive |
| ZNF614 | 1 | 0.858 | 99 | inactive |
| ZNF614 | 2 | -0.0315 | 81.3 | inactive |
| ZNF614 | 3 | -0.211 | 77.7 | inactive |
| ADGRG4 | 1 | 0.0752 | 83.4 | inactive |
| ADGRG4 | 2 | -1.6 | 50 | inactive |
| ADGRG4 | 3 | -0.788 | 66.2 | inactive |
| IGSF9 | 1 | 0.132 | 84.5 | inactive |
| IGSF9 | 2 | 0.389 | 89.6 | inactive |
| IGSF9 | 3 | 1.99 | 121 | inactive |
| ZNF703 | 1 | 0.709 | 96 | inactive |
| ZNF703 | 2 | 0.174 | 85.3 | inactive |
| ZNF703 | 3 | 1.65 | 115 | inactive |
| TMEM74B | 1 | 0.212 | 86.1 | inactive |
| TMEM74B | 2 | 0.0664 | 83.2 | inactive |
| TMEM74B | 3 | -1.54 | 51.3 | inactive |
| PIP | 1 | 0.667 | 95.2 | inactive |
| PIP | 2 | 1.79 | 117 | inactive |
| PIP | 3 | 0.277 | 87.4 | inactive |
| HECA | 1 | -0.673 | 68.5 | inactive |
| HECA | 2 | 0.536 | 92.5 | inactive |
| HECA | 3 | 0.215 | 86.2 | inactive |
| RPL18AP16 | 1 | -0.109 | 79.7 | inactive |
| RPL18AP16 | 2 | -2.73 | 27.6 | inactive |
| RPL18AP16 | 3 | -0.248 | 76.9 | inactive |
| SMIM24 | 1 | 1.83 | 118 | inactive |
| SMIM24 | 2 | 0.24 | 86.7 | inactive |
| SMIM24 | 3 | -1.65 | 49 | inactive |
| CHST12 | 1 | -1.84 | 45.2 | inactive |
| CHST12 | 2 | -1.85 | 45 | inactive |
| CHST12 | 3 | -0.199 | 77.9 | inactive |
| VBP1 | 1 | -0.169 | 78.5 | inactive |
| VBP1 | 2 | -0.784 | 66.3 | inactive |
| VBP1 | 3 | -0.407 | 73.8 | inactive |
| PPP5C | 1 | -0.688 | 68.2 | inactive |
| PPP5C | 2 | -0.63 | 69.3 | inactive |
| PPP5C | 3 | 4.8 | 177 | active |
